This is an account of results in doi:10.1101/2025.06.18.660225.

By UniProt entry, the sequences of proteins in these tests, tags left out.
UniProt Q12417: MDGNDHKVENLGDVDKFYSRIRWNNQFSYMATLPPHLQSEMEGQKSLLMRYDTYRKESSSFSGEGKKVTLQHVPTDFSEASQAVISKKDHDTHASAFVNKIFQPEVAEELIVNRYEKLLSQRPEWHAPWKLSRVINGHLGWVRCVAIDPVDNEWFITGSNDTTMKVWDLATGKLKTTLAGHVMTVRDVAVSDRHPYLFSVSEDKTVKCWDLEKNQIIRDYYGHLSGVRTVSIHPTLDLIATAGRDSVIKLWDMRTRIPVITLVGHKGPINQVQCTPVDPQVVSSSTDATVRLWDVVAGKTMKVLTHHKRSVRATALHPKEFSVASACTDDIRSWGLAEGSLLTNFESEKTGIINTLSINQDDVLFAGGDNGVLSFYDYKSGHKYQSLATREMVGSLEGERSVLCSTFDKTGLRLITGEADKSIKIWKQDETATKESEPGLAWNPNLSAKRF
UniProt P32639: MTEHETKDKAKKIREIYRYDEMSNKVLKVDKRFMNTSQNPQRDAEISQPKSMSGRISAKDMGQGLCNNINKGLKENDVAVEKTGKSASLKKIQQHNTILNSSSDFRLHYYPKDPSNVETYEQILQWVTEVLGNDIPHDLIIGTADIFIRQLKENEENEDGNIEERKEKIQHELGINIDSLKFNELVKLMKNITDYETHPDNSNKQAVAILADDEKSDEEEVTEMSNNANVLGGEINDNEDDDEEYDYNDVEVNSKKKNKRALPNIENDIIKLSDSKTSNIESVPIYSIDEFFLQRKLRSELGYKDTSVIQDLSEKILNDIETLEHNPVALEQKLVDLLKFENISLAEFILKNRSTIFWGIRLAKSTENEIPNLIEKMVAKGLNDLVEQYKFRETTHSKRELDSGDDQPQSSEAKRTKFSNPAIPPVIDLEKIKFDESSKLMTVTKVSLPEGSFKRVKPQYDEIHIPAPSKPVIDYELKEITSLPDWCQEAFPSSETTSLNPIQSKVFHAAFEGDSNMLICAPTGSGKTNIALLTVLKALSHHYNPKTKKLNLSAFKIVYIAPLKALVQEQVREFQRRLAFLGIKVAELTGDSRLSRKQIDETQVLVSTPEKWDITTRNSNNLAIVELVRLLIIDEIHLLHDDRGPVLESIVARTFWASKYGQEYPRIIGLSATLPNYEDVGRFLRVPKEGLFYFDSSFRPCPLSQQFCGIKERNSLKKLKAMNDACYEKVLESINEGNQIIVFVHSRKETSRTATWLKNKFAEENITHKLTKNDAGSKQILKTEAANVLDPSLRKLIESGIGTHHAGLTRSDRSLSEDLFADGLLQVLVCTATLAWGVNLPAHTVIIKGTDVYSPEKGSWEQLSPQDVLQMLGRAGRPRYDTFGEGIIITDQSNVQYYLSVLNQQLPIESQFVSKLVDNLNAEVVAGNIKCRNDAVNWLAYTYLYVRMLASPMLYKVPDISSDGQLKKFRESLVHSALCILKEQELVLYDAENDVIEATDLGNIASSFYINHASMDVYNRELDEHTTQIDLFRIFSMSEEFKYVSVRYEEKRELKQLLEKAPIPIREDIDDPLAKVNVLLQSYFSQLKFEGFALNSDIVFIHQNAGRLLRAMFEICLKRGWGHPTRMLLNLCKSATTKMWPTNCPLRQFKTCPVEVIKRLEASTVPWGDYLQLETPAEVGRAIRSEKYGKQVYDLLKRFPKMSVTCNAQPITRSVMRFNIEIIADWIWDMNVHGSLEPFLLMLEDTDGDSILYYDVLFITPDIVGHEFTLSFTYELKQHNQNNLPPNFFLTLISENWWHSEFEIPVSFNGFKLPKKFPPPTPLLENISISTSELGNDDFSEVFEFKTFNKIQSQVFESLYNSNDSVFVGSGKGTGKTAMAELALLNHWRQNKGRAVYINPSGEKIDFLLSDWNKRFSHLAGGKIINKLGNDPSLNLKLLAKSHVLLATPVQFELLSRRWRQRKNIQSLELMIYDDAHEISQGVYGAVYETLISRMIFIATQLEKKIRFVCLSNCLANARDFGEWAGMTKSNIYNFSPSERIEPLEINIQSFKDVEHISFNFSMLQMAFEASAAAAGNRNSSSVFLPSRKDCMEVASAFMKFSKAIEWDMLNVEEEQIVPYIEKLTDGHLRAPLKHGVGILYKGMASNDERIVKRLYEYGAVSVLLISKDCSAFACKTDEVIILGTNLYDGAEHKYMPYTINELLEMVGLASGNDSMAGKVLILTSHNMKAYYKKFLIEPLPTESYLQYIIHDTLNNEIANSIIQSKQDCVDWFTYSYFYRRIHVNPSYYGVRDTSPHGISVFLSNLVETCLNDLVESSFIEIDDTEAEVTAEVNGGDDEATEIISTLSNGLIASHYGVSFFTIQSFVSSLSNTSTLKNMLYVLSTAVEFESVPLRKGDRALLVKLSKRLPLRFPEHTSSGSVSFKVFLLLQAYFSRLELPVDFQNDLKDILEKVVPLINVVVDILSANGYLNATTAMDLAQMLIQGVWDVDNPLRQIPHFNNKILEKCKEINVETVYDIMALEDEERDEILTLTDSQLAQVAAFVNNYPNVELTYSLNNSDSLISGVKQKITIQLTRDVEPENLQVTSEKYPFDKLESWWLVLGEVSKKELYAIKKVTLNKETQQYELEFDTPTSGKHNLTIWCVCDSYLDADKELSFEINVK
UniProt P32523: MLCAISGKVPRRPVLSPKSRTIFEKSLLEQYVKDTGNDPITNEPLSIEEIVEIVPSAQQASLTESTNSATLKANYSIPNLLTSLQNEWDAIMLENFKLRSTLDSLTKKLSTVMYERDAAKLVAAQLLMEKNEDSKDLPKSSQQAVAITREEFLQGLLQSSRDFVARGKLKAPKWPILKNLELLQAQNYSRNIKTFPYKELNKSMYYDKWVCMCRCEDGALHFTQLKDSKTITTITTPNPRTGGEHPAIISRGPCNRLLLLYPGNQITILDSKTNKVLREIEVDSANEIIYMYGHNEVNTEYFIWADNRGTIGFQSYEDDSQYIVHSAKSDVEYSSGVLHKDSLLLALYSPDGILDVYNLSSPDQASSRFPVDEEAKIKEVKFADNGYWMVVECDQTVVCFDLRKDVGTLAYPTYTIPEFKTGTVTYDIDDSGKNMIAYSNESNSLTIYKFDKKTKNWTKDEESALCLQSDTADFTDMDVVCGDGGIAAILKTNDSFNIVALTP
UniProt Q12309: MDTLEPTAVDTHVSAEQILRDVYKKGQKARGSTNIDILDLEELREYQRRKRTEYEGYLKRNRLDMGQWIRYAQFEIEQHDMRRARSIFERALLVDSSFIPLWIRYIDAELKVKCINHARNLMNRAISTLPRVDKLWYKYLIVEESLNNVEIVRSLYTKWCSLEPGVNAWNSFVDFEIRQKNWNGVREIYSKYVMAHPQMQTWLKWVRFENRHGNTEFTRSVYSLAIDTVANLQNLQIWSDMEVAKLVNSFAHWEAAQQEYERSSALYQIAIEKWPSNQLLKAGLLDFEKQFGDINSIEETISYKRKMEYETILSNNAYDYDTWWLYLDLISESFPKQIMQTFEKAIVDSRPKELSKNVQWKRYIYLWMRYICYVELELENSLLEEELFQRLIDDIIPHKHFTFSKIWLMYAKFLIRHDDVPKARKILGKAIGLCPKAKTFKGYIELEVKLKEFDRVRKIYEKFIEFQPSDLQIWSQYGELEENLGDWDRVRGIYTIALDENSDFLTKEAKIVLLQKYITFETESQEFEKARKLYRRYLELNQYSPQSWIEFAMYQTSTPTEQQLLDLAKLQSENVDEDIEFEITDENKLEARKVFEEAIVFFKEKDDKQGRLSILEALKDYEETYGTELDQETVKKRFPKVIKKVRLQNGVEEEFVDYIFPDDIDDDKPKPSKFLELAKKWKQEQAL

The target in assay [1] is full-length Prp45 with biotin ligase BirA at the C-terminus (S. cerevisiae) (UniProt P28004). Description: proximity labelling.
The target in assay [2] is T1, Prp45ΔCTR (residues 1-169) with biotin ligase BirA at the C-terminus (S. cerevisiae) (UniProt P28004).
T1 sequence: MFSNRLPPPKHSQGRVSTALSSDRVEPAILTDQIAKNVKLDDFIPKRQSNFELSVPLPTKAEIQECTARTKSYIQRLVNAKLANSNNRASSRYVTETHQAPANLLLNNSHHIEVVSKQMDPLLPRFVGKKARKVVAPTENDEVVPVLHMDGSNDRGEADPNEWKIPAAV
The experiment in a line: proximity labelling.

Results are given in words; binding and its absence hold for the method and conditions named. In cells and extracts the contact can be indirect. Here binding means that the protein was enriched with, or labelled near, the bait; the list need not be complete. For some of these results: A no says only that the protein was not detected with the bait.

Prp46 (from UniProt Q12417 1-451): the binding entry in assay [1] and in assay [2] was “binds” in each case.

With Brr2 (from UniProt P32639 1-2163), the binding result in assay [1] and in assay [2] was “binds” throughout.

In the case of Prp19 (from UniProt P32523 1-503), the binding result in assay [1] was “binds”.

On to Clf1 (from UniProt Q12309 1-687), for which the binding result in assay [1] and in assay [2] was “binds” in each case.

B1: Bre1 (enzyme, UniProt Q07457 1-700)
chain: MTAEPATKKIKLELSDPSEPLTQSDVIAFQKEALFRCINRRRVDFEALRKQYELSRRECIDVSRKLANIMALIVTLARFIETFCTDANEKQLCREIAQGDETLIVQRSDSFMKLLTKYGKPNTTDSNTNSNASDHIQELTTELKNLRKSKEELFYENSQLTEEISALKEYYTNIIRKYDRDESFTIKRVFKEDKTDAVKELREDEKESNENNIKSGNKDSSAINGDNTSKKSEKGDELVQAEDERKEDAENEKLELDLKFSDLRAEINSLSSTIKDLENIRRENEEELIKTRSEVSNLKKQQIAAADQDPDFKSYDHESLLAKIQHLTEQNAELSEINSSFLSKFQVLAKEKEIYTKKVREEFQKSLDSLVEMNSSLEKDVVRIRTARDDLLSKIAILEAEKSKTEVLSDLQHAIDILKEQWTKIDQRSNDTKSSSTQDALIKEIQDLEKGFRELSDLTHKKYSEIINHESVISKLTVEKTKADQKYFAAMRSKDSILIEIKTLSKSLSKSNELILQLKDSDRLLQQKIGNLHKQLDLSQNNERRLIDSSKTETLKIIDLNNTSTKLKRSLEKLQEESNKSIADMTHLETKLNDTEIELKHFKQKASHLESKCEKLHDTLFRGNNKNKGSSDEALVEELANFRTLVYCSLCSKNWKNMAIKTCGHVFCENCCKERLAARMRKCPTCNKAFSSNDLLTVHL
Consider B1, for which the binding result in assay [2] is given as “no binding”.

B2: Spp2 (protein, UniProt Q02521 1-185)
chain: MSKFSLKLGSKTLKKNISKKTKKKNSLQKANLFDWDDAETASLSHKPQSKIKIQSIDKFDLDEESSSKKKLVIKLSENADTKKNDAPLVEYVTEKEYNEVPVEEFGDALLRGMGWESDSEQDSKGDKTQSRNKDVSNVSQIHPDGLGIGAKLNKAINVEEASFMPVVKIDKITGTKVDDDKKNKS
In the case of B2, the binding result in assay [1] and in assay [2] was “binds” throughout.
